Some of the results follow.
These sequences were tested against T1, OsSMF1 (Oryza sativa, UniProt Q6ZLB0 1-436) (assay: protein-binding microarray (RPBM); PBS, 2% BSA, 51.3 ng/ul salmon testes DNA, 50 uM zinc acetate, 200 nM TF, 25 C, 1 h; high values mean tight binding). Details: protein: recombinant; tags: N-terminal polyhistidine and DsRed monomer fusion (pET32a); chain copies: 2; label: CyDye5-dUTP incorporated in the synthesized complementary strand; 3' TTTTT single-stranded linker to array surface; dsDNA, one strand shown.
T1 sequence: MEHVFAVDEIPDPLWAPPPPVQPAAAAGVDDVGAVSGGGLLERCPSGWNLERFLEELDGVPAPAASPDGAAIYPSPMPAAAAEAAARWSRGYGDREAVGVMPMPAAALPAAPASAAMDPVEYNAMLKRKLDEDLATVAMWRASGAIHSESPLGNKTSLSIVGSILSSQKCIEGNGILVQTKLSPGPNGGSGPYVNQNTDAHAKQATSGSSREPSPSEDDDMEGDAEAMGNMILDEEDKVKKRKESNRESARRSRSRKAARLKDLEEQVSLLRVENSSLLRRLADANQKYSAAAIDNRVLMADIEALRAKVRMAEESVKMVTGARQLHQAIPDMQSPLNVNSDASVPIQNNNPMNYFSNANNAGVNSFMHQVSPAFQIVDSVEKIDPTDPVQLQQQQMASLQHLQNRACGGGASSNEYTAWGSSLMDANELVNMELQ
Outline: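 For the binding signal, per-feature fluorescence intensity was read in arbitrary units on an Axon 4000B scanner. Before scanning, a 2% BSA-blocked custom Agilent array made double-stranded with Cy5-dUTP was washed after 1 h at 25 °C with 200 nM protein and 50 µM zinc acetate. The proteins were Ni–NTA-purified transcription factors with N-terminal polyhistidine and DsRed fusions, expressed in E. coli BL21-CodonPlus.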
With “GCGACTTGACCCCTGTAGCCTCGCGATCGTACGTGTCAACCGGAGTCACCTAGTGCAG” the binding signal was 6100 fluorescence intensity (a.u.).
In the case of “TCAAATTGAAAGTTTCCAAAATTTTCAAATCTGGACTTGACGGAGTCACCTAGTGCAG”, the binding signal was 43500 fluorescence intensity (a.u.).
“TCTGAACCCAAACCCACGTGGGGCCAGACCAGCAACGCAGCGGAGTCACCTAGTGCAG” was tested, and the binding signal was 3980 fluorescence intensity (a.u.).
With “TCATATTACTGTCTTAATTAATTCATCATGCTGCTGACAGCGGAGTCACCTAGTGCAG” the binding signal was 3990 fluorescence intensity (a.u.).
In the case of “GAGTTCATCCTTATTGCTTTCTGTCTTGACATTTATCTTGCGGAGTCACCTAGTGCAG”, the binding signal was 28500 fluorescence intensity (a.u.).
In the case of “AGTTCGAGCCTCTCTCATGACATCGTTGAACTTTATCGTGCGGAGTCACCTAGTGCAG”, the binding signal was 3380 fluorescence intensity (a.u.).
In the case of “ACATCCGTTGCCTGGTGGCGCACTCACCCGTCGTGTGGATCGGAGTCACCTAGTGCAG”, the binding signal was 3820 fluorescence intensity (a.u.).
With “CAGTTAATTTACTTGTGACGTATCGCTGGGAAGTTAATTTCGGAGTCACCTAGTGCAG” the binding signal was 22000 fluorescence intensity (a.u.).
For “GCCTCTACACCACAAGGAGAACAGTGGTGATGCCACACATCGGAGTCACCTAGTGCAG”, the binding signal was 4310 fluorescence intensity (a.u.).
In the case of “GCTTGCCGACGCCGACGCCGCCGCCGCCACCGCCGTGGCGCGGAGTCACCTAGTGCAG”, the binding signal was 4150 fluorescence intensity (a.u.).
With “AGTTTTCATAAACTCCACATCATCAAGAAACTAGTACTAGCGGAGTCACCTAGTGCAG” the binding signal was 5420 fluorescence intensity (a.u.).
With “AATAAATTATTTACATGATAATCGAGTTAGCAGTGATCGTCGGAGTCACCTAGTGCAG” the binding signal was 16000 fluorescence intensity (a.u.).
“TTGCAACTTGCAACTTGCAACGTGCGTGCCGCGTGGGTGGCGGAGTCACCTAGTGCAG” was tested, and the binding signal was 4640 fluorescence intensity (a.u.).
With “CTCTCTCTAGCGCAGCGTGCATGACGAGGACGGGCGGTGGCGGAGTCACCTAGTGCAG” the binding signal was 4860 fluorescence intensity (a.u.).
For “TATTCTTGCACCATAACACTCCACGTAATACCATTATATGCGGAGTCACCTAGTGCAG”, the binding signal was 9310 fluorescence intensity (a.u.).
For “CGGGAACCACGCGTCGAACACTTTCGGGCGTCACCAACAGCGGAGTCACCTAGTGCAG”, the binding signal was 4190 fluorescence intensity (a.u.).
“GTGAAGACCGAGCGAAGATTACGCCTCATCAGTCATCACCCGGAGTCACCTAGTGCAG” was tested, and the binding signal was 4110 fluorescence intensity (a.u.).
“CATGTCAGACAGTCCACGTCATCACCTTTCTCTCCCCTCTCGGAGTCACCTAGTGCAG” was tested, and the binding signal was 38200 fluorescence intensity (a.u.).
“TGCAAGATTGCAGCTACGCCAATGCGGCCCACGTAGTCGCCGGAGTCACCTAGTGCAG” was tested, and the binding signal was 5000 fluorescence intensity (a.u.).
“AGTCCACCGCGTCCTTGCGCGCCTACGCGAGTGCTTGTCCCGGAGTCACCTAGTGCAG” was tested, and the binding signal was 3330 fluorescence intensity (a.u.).
In the case of “GAGAGGCCCCAAGTGTGCTGACGCATCGAATTATTTACTCCGGAGTCACCTAGTGCAG”, the binding signal was 8280 fluorescence intensity (a.u.).
“ATCGCCACCAGTGCGTGACGCCACTCCGTCGCGTCGCCGTCGGAGTCACCTAGTGCAG” was tested, and the binding signal was 4740 fluorescence intensity (a.u.).
“TCTCTCTCTTTCTCGTCTCCTCCTATCCGCGTCCATCTCTCGGAGTCACCTAGTGCAG” was tested, and the binding signal was 22400 fluorescence intensity (a.u.).
“CTTACCGTGTTATAGTAGCCACCCAGTCAGCCGCGCTAACCGGAGTCACCTAGTGCAG” was tested, and the binding signal was 3570 fluorescence intensity (a.u.).
With “TCAGCCCGACGTTTCTGCTGCAAAACCACGGCCTGATTCCCGGAGTCACCTAGTGCAG” the binding signal was 3490 fluorescence intensity (a.u.).
In the case of “TTGCGACGGCCATCCTCCGCGCGCGTGACACCAACGCCACCGGAGTCACCTAGTGCAG”, the binding signal was 4880 fluorescence intensity (a.u.).
With “ATGGAGACTTCTCACGCCAGACCCAAGTTTTGGCCTCCTCCGGAGTCACCTAGTGCAG” the binding signal was 12900 fluorescence intensity (a.u.).
With “TCTCCTCCCGAACAACTTTCTCGAGGCCCGGCCCAACCCGCGGAGTCACCTAGTGCAG” the binding signal was 5980 fluorescence intensity (a.u.).
For “TGCTTCCGGCGGCATTACCTCCTCGTCCTCGTCCGACTCCCGGAGTCACCTAGTGCAG”, the binding signal was 3420 fluorescence intensity (a.u.).
In the case of “GATCTCAGCTCTGATCCATTCCATCCACGCCGCCGTCGCGCGGAGTCACCTAGTGCAG”, the binding signal was 3140 fluorescence intensity (a.u.).
With “CGGCACCAAATCAGCGCCCGCCCGCGCCCACCCCACCGGACGGAGTCACCTAGTGCAG” the binding signal was 3250 fluorescence intensity (a.u.).
In the case of “GATGGGGTCCATGCACGCAAGGTCGCGCTGGCGCGGGCGGCGGAGTCACCTAGTGCAG”, the binding signal was 4760 fluorescence intensity (a.u.).
“ATGGATGGGACTTGAGTGCGTGGCATAATTACATGCAAGCCGGAGTCACCTAGTGCAG” was tested, and the binding signal was 7640 fluorescence intensity (a.u.).
“CTTTTGCTTTCCCGTCGTCTCGTTGCCGACGTCAGATCGACGGAGTCACCTAGTGCAG” was tested, and the binding signal was 6390 fluorescence intensity (a.u.).
“ACGCGGCCACGACGTGGTTTGGTTTGGTGGTTACGGCGCACGGAGTCACCTAGTGCAG” was tested, and the binding signal was 3300 fluorescence intensity (a.u.).
With “TCGGGTCGGGCACAAGGCGATGCCGTCAGATTCCAGCAAGCGGAGTCACCTAGTGCAG” the binding signal was 6020 fluorescence intensity (a.u.).
In the case of “CGGAGCAACATTCCACGTTGTTTTCTTACCAATTTGACTGCGGAGTCACCTAGTGCAG”, the binding signal was 3290 fluorescence intensity (a.u.).
With “GAGAAGACAGAATGGGCCGTGTCACTGTGAGTCGACAGATCGGAGTCACCTAGTGCAG” the binding signal was 3370 fluorescence intensity (a.u.).
With “TGATCTTATTATGCATCATGACACGTACTGAGAGCAACATCGGAGTCACCTAGTGCAG” the binding signal was 3320 fluorescence intensity (a.u.).
For “GCCTCCACGCAATACACGTCAAATCAATTTAGGGTTTGCTCGGAGTCACCTAGTGCAG”, the binding signal was 7900 fluorescence intensity (a.u.).
“TAAGCGTCACGTCAGTGCCACGTTGAGAGACGAAAATCGGCGGAGTCACCTAGTGCAG” was tested, and the binding signal was 9460 fluorescence intensity (a.u.).
With “GGACGTTGGGCCAGCCGCAAGTGGATTGGACAATTTGGACCGGAGTCACCTAGTGCAG” the binding signal was 28100 fluorescence intensity (a.u.).

Source: PMC7819943, “Rice protein-binding microarrays: a tool to detect cis-acting elements near promoter regions in rice”
